Source: PubChem BioAssay AID504793 (Drosophila RNAi Screening Center, 2011)
In all, the deposit lists about 23,000 reagents; shown is an unselected part of those that have a named target and a result. Over the whole deposit, 62 (0.27%) are marked active. 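Calls come from follow-up tests whose scores are not deposited, so confirmed genes may have low counts here; counts are not normalised per plate.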 Raw values vary from plate to plate and are shown uncorrected.

Screen: 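Whole-genome screen for parts of the DNA damage checkpoint at G2/M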 (primary screen)
System: Drosophila S2R+ cells
Knock-down reagent: long dsRNA against Drosophila genes, about 0.25 µg dsRNA per well
Time to read-out: 4 days of dsRNA, then 4 hours of drug before read-out
Challenge: doxorubicin 0.5 µM for 4 hours to cause double-strand breaks, in cells also given a low, harmless dose of dsRNA against nbs to sensitise the assay
Measured: 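Per-well count of mitotic cells stained for phospho-histone H3 after doxorubicin exposure, used as mitotic index; counts are raw and not normalised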
Reading the numbers: mitotic cells: higher = more cells in mitosis, weaker G2 arrest
Call rule: 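Genes are called active only when high mitotic counts were reproduced with independent dsRNAs and mitosis was checked for delay without damage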
Meaning of the calls: active = confirmed in follow-up tests; inactive = not confirmed

{"target": "rush", "DRSC id": "DRSC18568", "mitotic cells, replicate 1": 5, "Call": "inactive"}
{"target": "sli", "DRSC id": "DRSC07684", "mitotic cells, replicate 1": 12, "Call": "inactive"}
{"target": "sli", "DRSC id": "DRSC29578", "mitotic cells, replicate 1": 4, "Call": "inactive"}
{"target": "CG7730", "DRSC id": "DRSC10909", "mitotic cells, replicate 1": 6, "Call": "inactive"}
{"target": "CG5262", "DRSC id": "DRSC11773", "mitotic cells, replicate 1": 6, "Call": "inactive"}
{"target": "Camp", "DRSC id": "DRSC07004", "mitotic cells, replicate 1": 4, "Call": "inactive"}
{"target": "CG13465", "DRSC id": "DRSC10011", "mitotic cells, replicate 1": 7, "Call": "inactive"}
{"target": "x16", "DRSC id": "DRSC00960", "mitotic cells, replicate 1": 9, "Call": "inactive"}
{"target": "x16", "DRSC id": "DRSC03638", "mitotic cells, replicate 1": 6, "Call": "inactive"}
{"target": "x16", "DRSC id": "DRSC23865", "mitotic cells, replicate 1": 3, "Call": "inactive"}
{"target": "Zfrp8", "DRSC id": "DRSC04352", "mitotic cells, replicate 1": 3, "Call": "inactive"}
{"target": "CG9389", "DRSC id": "DRSC11857", "mitotic cells, replicate 1": 2, "Call": "inactive"}
{"target": "wrm1", "DRSC id": "DRSC11007", "mitotic cells, replicate 1": 6, "Call": "inactive"}
{"target": "wrm1", "DRSC id": "DRSC24006", "mitotic cells, replicate 1": 4, "Call": "inactive"}
{"target": "CG5541", "DRSC id": "DRSC19946", "mitotic cells, replicate 1": 5, "Call": "inactive"}
{"target": "mRpS25", "DRSC id": "DRSC19598", "mitotic cells, replicate 1": 12, "Call": "inactive"}
{"target": "Afg3l2", "DRSC id": "DRSC10657", "mitotic cells, replicate 1": 2, "Call": "inactive"}
{"target": "Afg3l2", "DRSC id": "DRSC29981", "mitotic cells, replicate 1": 16, "Call": "inactive"}
{"target": "CG11076", "DRSC id": "DRSC17197", "mitotic cells, replicate 1": 12, "Call": "inactive"}
{"target": "CG4714", "DRSC id": "DRSC06883", "mitotic cells, replicate 1": 4, "Call": "inactive"}
{"target": "Trap1", "DRSC id": "DRSC05019", "mitotic cells, replicate 1": 8, "Call": "inactive"}
{"target": "CG6567", "DRSC id": "DRSC16066", "mitotic cells, replicate 1": 8, "Call": "inactive"}
{"target": "Unc50", "DRSC id": "DRSC16561", "mitotic cells, replicate 1": 6, "Call": "inactive"}
{"target": "Unc50", "DRSC id": "DRSC28560", "mitotic cells, replicate 1": 7, "Call": "inactive"}

Reprinted from above for reference:
{"target": "x16", "DRSC id": "DRSC03638", "mitotic cells, replicate 1": 6, "Call": "inactive"}
{"target": "x16", "DRSC id": "DRSC23865", "mitotic cells, replicate 1": 3, "Call": "inactive"}
{"target": "Zfrp8", "DRSC id": "DRSC04352", "mitotic cells, replicate 1": 3, "Call": "inactive"}
{"target": "CG9389", "DRSC id": "DRSC11857", "mitotic cells, replicate 1": 2, "Call": "inactive"}
